Values quoted from earlier work in patent publication US8691198B2, “Environmentally benign plasticizers based on derivatives of acetone” (priority 2010, dated 2014).

System: rat
Conditions: left half of Table 1

## CC(C)CC(=O)O [Isovaleric acid]
  LD50(rat): 3200 mg/kg
